The source of these data is PubChem BioAssay AID662 (National Center for Advancing Translational Sciences (NCATS), 2007).

One may read the AC50 as the concentration at which the activity in the assay is half-maximal.

Several values for one entry are separate records, joined by “and”; a condition that tells them apart may be missing. Equal entries are not always repeated. This is one part of the list. Shown are side measurements of this screen, not its main read-out; they come without a call. Compounds called inactive in the main read-out are mostly missing here. The note in brackets gives the kind of curve behind each potency; many fits are weak.

This assay is described as follows: Cell signaling CRE-BLA (Fsk stim). Conditions: CHO CRE-bla reporter (cAMP response element driving beta-lactamase), forskolin EC10, beta-lactamase ratio; measured here: 460 nm blue channel. The method, boiled down: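 Using CellSensor CRE-bla CHO cells in Opti-MEM with 0.5% dialyzed FBS, compounds were titrated with EC10 NKH 477 for 3 h at 37 °C. CCF4 ratio (460/530 nm) gave %Activity; AC50 derived.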
With `COc1ncc2nc(-c3cccs3)c(=O)n(C)c2n1`, the AC50 is 3.16 µM [rising, full curve].

For `Cc1onc(-c2c(Cl)cccc2Cl)c1C(=O)N1CCc2ccccc21`, the AC50 was 15.8 µM [falling, single point].

For `O=C(CN1C(=O)C2C3C=CC(C3)C2C1=O)N1CC(=O)N(CCc2ccccc2)C(=O)C1` (configuration not stated), the AC50 is 2.51 µM [falling, single point].

Consider `Cn1c(=O)c2c(nc(N3CCc4ccccc4C3)n2Cc2ccccc2F)n(C)c1=O`, for which the AC50 was 3.98 µM [rising, partial curve].

`CC(C)c1ccc(NC(=O)CSc2nnc(-c3ccccn3)n2C)cc1`: the concentration at half-maximal activity (AC50) was 0.0631 µM [rising, single point].

Turning to `CC1(C)CC(CCNC(=O)c2ccc(-n3cnnn3)cc2)CC(C)(C)N1`, the AC50 is 1.58 µM [falling, full curve, poor fit].

For `CCn1nc(C(=O)Nc2ccc(S(=O)(=O)Nc3nccs3)cc2)c2ccccc2c1=O`, the AC50 was 3.16 µM [rising, single point].

On to `O=C(c1ccc2c(c1)OCO2)n1nnc2ccccc21`, for which the AC50 is 10 µM [falling, partial curve].

`COc1ccccc1-c1cc(NCc2cccc(C)c2)ncn1`: the AC50 is 6.31 µM [rising, partial curve, poor fit].

Regarding `Cc1cc2ccccc2n1CCNC(=O)c1cccs1`, the AC50 was 15.8 µM [falling, partial curve].

Consider `CN1CCc2c(sc3nc(SCC(N)=O)n(-c4ccccc4)c(=O)c23)C1`, for which the AC50 is 20 µM [rising, single point].

Turning to `Cc1ccc(S(=O)(=O)c2cc3c(=O)n4cc(C)ccc4nc3n(CC3CCCO3)c2=N)cc1` (configuration not stated), the concentration at half-maximal activity (AC50) was 12.6 µM [rising, partial curve].

For the compound `COc1ccc(Cc2nnc(NC(=O)c3c(-c4ccccc4)noc3C)s2)cc1OC`, the AC50 was 12.6 µM [rising, partial curve].

`Cc1nc2ccccc2c2oc(C(=O)N3CCN(C(=O)c4ccco4)CC3)cc12`: the AC50 was 12.6 µM [rising, partial curve].

Consider `O=S(=O)(c1ccc2c(c1)OCCO2)N1CCC(c2nc3ccccc3s2)CC1`, for which the AC50 was 0.251 µM [falling, partial curve].

For `COc1ccc2cc3c(N)c(C(=O)N4CCCC4)sc3nc2c1`, the AC50 was 15.8 µM [rising, single point].

Consider `CC(C)(CO)Cc1cc(C(C)(C)C)c(O)c(C(C)(C)C)c1`, for which the AC50 is 31.6 µM [falling, single point].

`O=C(O)CN(CCN(CC(=O)O)CC(=O)O)CCN(CC(=O)O)CC(=O)O`: the AC50 is 12.6 µM [rising, partial curve] and 12.6 µM [rising, single point].

With `O=C(CN1CCC(n2nnc3cc(F)ccc32)CC1)Nc1ccccc1N1CCOCC1`, the AC50 was 10 µM [rising, single point].

As to `Cc1c(C(=O)OC2CCCCC2)sc2nc[nH]c(=O)c12`, the AC50 is 3.98 µM [rising, partial curve].

For `COc1ccccc1N1CCN(Cc2nc3ccccc3c(=O)n2CC(C)=O)CC1`, the concentration at half-maximal activity (AC50) was 2.51 µM [rising, single point].

Consider `CC(C)(C)NS(=O)(=O)c1cccc(S(=O)(=O)c2cccc(S(=O)(=O)NC(C)(C)C)c2)c1`, for which the AC50 was 25.1 µM [rising, single point].

Take `Cc1ccccc1-n1c(SCc2cc(=O)n3ccccc3n2)nc2[nH]ncc2c1=O`: the AC50 was 3.16 µM [rising, full curve].

On to `Cc1cc(C)c(C#N)c(SCS(=O)Cc2ccc(Cl)cc2)n1` (configuration not stated), for which the AC50 is 10 µM [rising, partial curve].

As for `COC(=O)c1ccc(C2/C(=C(/O)c3ccc(OC)cc3)C(=O)C(=O)N2CC2CCCO2)cc1` (configuration not stated), the AC50 is 0.00316 µM [rising, full curve, poor fit].

With `O=C(CCCC1=NS(=O)(=O)c2ccccc2N1)N1CCN(c2ccc(Cl)cc2)CC1`, the AC50 was 25.1 µM [falling, single point].

Consider `CC(C)(/C=N/O)/[N+]([O-])=C/C=[N+](\[O-])C(C)(C)/C=N/O`, for which the AC50 was 25.1 µM [rising, single point].

Take `COc1ccc(-n2c(Cc3cccn3C)nnc2SCC(=O)Nc2ccc(C)c(Cl)c2)cc1`: the AC50 was 6.31 µM [falling, partial curve].

For the compound `CCOc1cc(CN2CCSCC2)ccc1O`, the AC50 is 0.00398 µM [falling, full curve, poor fit].

Turning to `CN1C(=O)C(O)(CC(=O)c2ccccn2)c2cc(Br)ccc21` (configuration not stated), the concentration at half-maximal activity (AC50) was 0.00316 µM [falling, full curve].

Take `COc1ccc2[nH]c(C(=O)c3ccccc3)cc2c1`: the AC50 is 25.1 µM [rising, partial curve].

On to `CCn1c(SCC(=O)c2ccccc2)nnc1-c1cnccn1`, for which the AC50 was 5.01 µM [rising, single point].

As for `O=C(NCCN1CCOCC1)NC1(C(F)(F)F)Oc2ccccc2O1`, the concentration at half-maximal activity (AC50) was 6.31 µM [falling, partial curve, poor fit].

As to `CSc1nc(-c2ccccc2)ccc1C(N)=O`, the AC50 is 5.01 µM [falling, full curve, poor fit].

Consider `CCOC(=O)c1oc2ccccc2c1NC(=O)c1cccc(OC)c1`, for which the AC50 was 2.51 µM [rising, full curve].

`COc1cccc(-c2nc(NCCN3CCOCC3)c3ccccc3n2)c1`: the AC50 is 12.6 µM [rising, single point].

For the compound `CCc1cc(=O)oc2cc(OCC(=O)OC)c(Cl)cc12`, the half-maximal activity concentration (AC50) was 15.8 µM [rising, single point].

In the case of `COc1cccc(-n2nnc3c(=O)n(Cc4ccccc4F)cnc32)c1`, the AC50 is 15.8 µM [rising, partial curve].

As for `Nn1c(SCc2ccccc2)nnc1-c1ccco1`, the AC50 is 7.94 µM [rising, partial curve].

As to `O=S(=O)(c1cccc(-c2nc3ccccc3s2)c1)N1CCCC1`, the AC50 is 10 µM [rising, partial curve].

`O=c1cc(CN2CCN(C/C=C/c3ccccc3)CC2)c2cc(O)ccc2o1`: the AC50 is 0.1 µM [rising, single point].

As for `Clc1ccc(-c2nn3cnnc3s2)c(Cl)c1`, the AC50 is 12.6 µM [rising, single point].
